Test results taken from article PMC12008383.
No constants are given. Whether binding was seen depends on the method and setting. Binding calls can cover weak binding; strength is not graded here.

Key:
[1] = target: T1, S. aureus ribosomal protein uL16 (S. aureus (endogenous in NCTC 8325-4)) (UniProt Q2FW13); experiment: cryo-EM structure; FusB•Sa70S dataset: 0.5 uM S. aureus 70S, mRNA, E. coli tRNA-fMet, 15 uM FusB added less than 30 s before plunge-freezing; no EF-G, no FA; HEPES polymix; both purified
T1 sequence: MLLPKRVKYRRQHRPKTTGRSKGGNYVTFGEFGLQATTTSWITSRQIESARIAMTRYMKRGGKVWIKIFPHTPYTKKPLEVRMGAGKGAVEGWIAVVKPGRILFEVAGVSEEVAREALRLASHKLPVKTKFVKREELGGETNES

[2] = target: T2, S. aureus ribosomal protein uS12 (S. aureus (endogenous in NCTC 8325-4)) (UniProt P0A0H0); experiment: as above
T2 sequence: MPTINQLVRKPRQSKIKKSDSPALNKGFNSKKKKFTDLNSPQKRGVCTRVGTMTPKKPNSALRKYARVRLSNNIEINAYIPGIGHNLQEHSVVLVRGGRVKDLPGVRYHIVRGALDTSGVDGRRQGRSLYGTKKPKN

What does the source list for S. aureus FusB (from UniProt Q8GNY5)?
binding [1]: binds; binding [2]: binds
